Assay results reported in paper PMC4845985.
No constants are given. Whether binding was seen depends on the method and setting. For some of these results: Binding seen in cells or lysates may run through a third protein. Some results given as binding are weak or reduced against the parent protein; the word gives no strength. For some of these results: Where a sequence is shown, tags or fusion partners need not be part of it. Each block holds one binder with its values, some of them ahead of it.

Protein sequences, listed by entry. Tags and fused reporters are not part of them.
UniProt P32324: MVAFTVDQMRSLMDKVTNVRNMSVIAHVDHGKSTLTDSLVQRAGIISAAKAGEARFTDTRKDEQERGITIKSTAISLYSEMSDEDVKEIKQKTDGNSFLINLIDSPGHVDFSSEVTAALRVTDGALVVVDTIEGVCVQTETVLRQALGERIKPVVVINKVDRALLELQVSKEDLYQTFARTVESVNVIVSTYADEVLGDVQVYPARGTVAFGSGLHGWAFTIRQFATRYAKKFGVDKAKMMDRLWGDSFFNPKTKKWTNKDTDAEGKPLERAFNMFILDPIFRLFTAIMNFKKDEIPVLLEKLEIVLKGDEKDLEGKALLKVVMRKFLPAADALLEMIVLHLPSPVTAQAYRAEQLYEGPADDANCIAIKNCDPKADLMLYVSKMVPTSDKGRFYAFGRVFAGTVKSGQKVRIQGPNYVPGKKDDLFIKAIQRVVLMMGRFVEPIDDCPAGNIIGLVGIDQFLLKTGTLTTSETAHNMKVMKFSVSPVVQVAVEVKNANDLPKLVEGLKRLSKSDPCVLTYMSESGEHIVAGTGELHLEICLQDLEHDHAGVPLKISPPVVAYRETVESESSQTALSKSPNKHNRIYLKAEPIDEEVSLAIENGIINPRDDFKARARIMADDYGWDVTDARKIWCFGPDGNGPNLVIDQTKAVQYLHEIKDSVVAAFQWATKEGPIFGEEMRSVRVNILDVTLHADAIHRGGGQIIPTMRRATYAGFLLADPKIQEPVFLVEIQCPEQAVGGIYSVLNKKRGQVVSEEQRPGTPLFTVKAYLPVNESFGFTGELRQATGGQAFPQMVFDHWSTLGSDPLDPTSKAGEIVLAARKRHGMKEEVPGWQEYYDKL

What was measured:
[1] = molecular target: lexA-eEF2 (pBTM116-eEF2) (yeast) (UniProt P32324); test: two-hybrid; yeast strain L40; Gal4-AD fusion (pACT) with lexA fusion (pBTM116); growth on SC-leu,-trp,-his (HIS3) and β-gal filter assay (lacZ)
[2] = molecular target: T1, lexA-Lia1 (pBTM116-Lia1) (yeast) (UniProt P47120); test: as above
T1 sequence: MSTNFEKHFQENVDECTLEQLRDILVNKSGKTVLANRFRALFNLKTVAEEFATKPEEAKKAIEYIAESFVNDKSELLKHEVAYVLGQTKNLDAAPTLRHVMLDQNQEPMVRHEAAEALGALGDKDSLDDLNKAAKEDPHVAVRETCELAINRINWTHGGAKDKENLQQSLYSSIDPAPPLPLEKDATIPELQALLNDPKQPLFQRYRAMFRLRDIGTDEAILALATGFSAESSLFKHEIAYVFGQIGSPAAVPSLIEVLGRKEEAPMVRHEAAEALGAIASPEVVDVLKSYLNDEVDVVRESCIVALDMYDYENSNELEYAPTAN

[3] = molecular target: T2, lexA-Dys1 (pBTM116-Dys1) (yeast) (UniProt P38791); test: as above
T2 sequence: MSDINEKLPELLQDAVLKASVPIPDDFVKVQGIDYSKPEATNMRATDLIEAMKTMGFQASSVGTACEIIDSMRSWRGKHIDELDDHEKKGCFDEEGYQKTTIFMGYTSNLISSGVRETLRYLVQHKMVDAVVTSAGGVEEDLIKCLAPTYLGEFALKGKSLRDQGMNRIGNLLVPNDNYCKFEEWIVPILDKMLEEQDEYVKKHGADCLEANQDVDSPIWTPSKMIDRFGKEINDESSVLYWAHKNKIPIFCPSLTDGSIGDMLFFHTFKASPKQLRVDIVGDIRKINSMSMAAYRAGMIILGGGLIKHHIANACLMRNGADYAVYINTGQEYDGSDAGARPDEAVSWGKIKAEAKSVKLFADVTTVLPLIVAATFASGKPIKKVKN

GST-eIF5A = molecular target: T3, GST-eIF5A (UniProt P23301); test: pull-down; GST-eIF5A expressed in yeast; cells treated with 1% formaldehyde; lysate not treated with RNase A (polysomes kept); western blot of input and bound fractions
T3 sequence: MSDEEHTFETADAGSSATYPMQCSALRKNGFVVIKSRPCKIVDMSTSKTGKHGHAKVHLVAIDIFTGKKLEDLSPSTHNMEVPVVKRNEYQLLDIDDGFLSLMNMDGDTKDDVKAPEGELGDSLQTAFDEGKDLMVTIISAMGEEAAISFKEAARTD

binding [1]: no binding
binding [2]: binds weakly
binding [3]: binds
B1: Gal4-eIF5A (pACT-eIF5A) (protein, UniProt P23301 1-157)
chain: T3 sequence

binding (GST-eIF5A): binds
B2: ribosomal protein L5 (Rpl5) (protein, UniProt P26321 1-297)
chain: MAFQKDAKSSAYSSRFQTPFRRRREGKTDYYQRKRLVTQHKAKYNTPKYRLVVRFTNKDIICQIISSTITGDVVLAAAYSHELPRYGITHGLTNWAAAYATGLLIARRTLQKLGLDETYKGVEEVEGEYELTEAVEDGPRPFKVFLDIGLQRTTTGARVFGALKGASDGGLYVPHSENRFPGWDFETEEIDPELLRSYIFGGHVSQYMEELADDDEERFSELFKGYLADDIDADSLEDIYTSAHEAIRADPAFKPTEKKFTKEQYAAESKKYRQTKLSKEERAARVAAKIAALAGQQ
